From doi:10.1101/2021.12.06.471409
No constants are given. Whether binding was seen depends on the method and setting. In cells and extracts the contact can be indirect. Some entries that bind do so weakly or less than the wild type. Sequences can lack the tags named with a protein.

Amino acid sequences for entries named in this document (tags omitted).
UniProt Q96S21, whole entry: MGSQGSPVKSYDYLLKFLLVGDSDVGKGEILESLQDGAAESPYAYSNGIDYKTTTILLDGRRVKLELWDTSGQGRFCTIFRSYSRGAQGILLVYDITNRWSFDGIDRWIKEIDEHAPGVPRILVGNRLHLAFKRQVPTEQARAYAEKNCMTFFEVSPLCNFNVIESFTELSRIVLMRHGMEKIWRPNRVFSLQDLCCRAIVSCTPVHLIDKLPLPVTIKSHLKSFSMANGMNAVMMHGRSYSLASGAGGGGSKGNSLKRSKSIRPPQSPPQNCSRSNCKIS

Assays:
Test in all cases: co-IP
FLAG-ANKRD28 (human) = molecular target: T1, FLAG-ANKRD28 (human) (UniProt O15084)
T1 sequence: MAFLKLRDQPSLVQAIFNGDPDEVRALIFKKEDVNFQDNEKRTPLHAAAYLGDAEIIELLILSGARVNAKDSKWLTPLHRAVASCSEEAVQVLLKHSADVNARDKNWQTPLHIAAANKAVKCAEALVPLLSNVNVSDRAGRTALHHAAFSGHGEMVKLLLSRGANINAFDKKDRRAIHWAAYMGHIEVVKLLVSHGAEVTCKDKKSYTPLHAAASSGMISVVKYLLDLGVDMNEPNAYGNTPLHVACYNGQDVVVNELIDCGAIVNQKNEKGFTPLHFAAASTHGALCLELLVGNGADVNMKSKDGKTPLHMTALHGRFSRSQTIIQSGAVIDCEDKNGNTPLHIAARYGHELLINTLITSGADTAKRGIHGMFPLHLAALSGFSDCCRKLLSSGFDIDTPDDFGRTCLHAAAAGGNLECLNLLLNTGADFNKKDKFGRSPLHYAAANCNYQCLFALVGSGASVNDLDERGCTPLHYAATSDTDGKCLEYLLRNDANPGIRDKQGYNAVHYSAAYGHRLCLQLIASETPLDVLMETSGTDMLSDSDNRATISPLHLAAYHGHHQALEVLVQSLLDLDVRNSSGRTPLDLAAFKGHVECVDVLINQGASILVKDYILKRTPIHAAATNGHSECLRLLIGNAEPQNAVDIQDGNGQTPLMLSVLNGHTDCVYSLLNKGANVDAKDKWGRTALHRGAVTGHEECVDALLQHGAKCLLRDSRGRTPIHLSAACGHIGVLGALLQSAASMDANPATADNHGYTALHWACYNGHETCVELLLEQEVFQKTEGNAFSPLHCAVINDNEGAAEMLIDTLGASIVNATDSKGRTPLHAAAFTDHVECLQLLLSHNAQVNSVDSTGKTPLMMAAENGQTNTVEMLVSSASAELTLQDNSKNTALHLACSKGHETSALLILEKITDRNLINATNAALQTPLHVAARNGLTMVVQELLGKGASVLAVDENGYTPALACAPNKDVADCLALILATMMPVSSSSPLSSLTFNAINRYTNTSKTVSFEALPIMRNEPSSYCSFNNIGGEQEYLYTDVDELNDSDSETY

[1] = molecular target: T2, FLAG-PP6R1(518-881) (human) (UniProt Q9UPN7)
T2 sequence: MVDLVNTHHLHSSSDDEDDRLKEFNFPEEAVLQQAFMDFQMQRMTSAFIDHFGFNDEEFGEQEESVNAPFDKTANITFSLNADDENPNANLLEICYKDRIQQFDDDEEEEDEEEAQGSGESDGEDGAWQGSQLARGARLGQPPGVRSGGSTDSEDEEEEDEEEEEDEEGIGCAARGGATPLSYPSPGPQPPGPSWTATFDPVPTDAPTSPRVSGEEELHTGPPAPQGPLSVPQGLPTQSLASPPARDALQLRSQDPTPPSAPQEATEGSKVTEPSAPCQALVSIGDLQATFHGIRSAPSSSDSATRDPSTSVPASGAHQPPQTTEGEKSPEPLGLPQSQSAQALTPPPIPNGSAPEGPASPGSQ

FLAG-PP6c (human) = molecular target: T3, FLAG-PP6c (human) (UniProt O00743)
T3 sequence: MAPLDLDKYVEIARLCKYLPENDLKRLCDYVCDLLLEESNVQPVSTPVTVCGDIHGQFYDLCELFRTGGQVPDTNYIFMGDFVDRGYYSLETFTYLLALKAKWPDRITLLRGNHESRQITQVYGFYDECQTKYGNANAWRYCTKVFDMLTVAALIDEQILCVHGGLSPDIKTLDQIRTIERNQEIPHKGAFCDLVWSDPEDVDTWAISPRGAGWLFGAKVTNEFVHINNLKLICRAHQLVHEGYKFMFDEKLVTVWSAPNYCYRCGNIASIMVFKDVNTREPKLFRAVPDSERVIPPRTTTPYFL

FLAG-ANKRD44 (human) = molecular target: T4, FLAG-ANKRD44 (human) (UniProt Q8N8A2)
T4 sequence: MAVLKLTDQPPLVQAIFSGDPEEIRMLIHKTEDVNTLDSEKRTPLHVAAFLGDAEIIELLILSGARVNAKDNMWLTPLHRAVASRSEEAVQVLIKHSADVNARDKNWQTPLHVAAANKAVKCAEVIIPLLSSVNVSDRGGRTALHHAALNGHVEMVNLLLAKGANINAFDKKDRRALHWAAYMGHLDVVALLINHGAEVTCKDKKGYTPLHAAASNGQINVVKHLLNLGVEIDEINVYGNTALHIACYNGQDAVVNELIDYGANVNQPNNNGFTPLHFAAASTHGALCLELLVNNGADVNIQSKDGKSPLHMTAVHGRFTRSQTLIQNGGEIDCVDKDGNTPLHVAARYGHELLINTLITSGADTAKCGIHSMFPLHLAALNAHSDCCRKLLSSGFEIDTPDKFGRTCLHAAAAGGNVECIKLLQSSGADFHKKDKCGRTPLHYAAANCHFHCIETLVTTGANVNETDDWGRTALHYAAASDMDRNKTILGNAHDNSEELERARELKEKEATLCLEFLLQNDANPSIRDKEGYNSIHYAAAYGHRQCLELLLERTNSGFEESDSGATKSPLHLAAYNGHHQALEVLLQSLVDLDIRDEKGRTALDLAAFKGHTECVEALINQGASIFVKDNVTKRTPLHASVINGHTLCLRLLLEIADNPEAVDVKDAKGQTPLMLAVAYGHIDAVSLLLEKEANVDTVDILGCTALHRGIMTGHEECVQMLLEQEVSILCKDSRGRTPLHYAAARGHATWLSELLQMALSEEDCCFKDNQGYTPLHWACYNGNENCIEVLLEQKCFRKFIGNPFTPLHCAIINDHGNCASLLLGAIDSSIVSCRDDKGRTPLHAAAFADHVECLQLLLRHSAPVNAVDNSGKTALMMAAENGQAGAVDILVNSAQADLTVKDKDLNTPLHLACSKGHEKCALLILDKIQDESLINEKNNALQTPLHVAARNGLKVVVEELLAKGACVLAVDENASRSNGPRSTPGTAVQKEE

Measured: binding

HA-Rab40c (from UniProt Q96S21 1-281)
binds: all assays above
